In patent publication EP2921176A2, “PHARMACEUTICAL COMPOSITION FOR TREATMENT OF PROSTATIC HYPERPLASIA” (priority 2012, dated 2014):

Experiment: Mass of animals in the rat BPH model
Assay type: in vivo
Conditions: rats with BPH

SMILES | Mass of animals, g At end of experiment (1 mg/kg/day in stomach for 18 days) [g] | Mass of animals, g At end of experiment (10 mg/kg/day in stomach for 18 days) [g]
COc1cc2nc(N3CCN(C(=O)C4COc5ccccc5O4)CC3)nc(N)c2cc1OC (centres unmarked) [Doxazosin] | 311 ± 5 | –
CC(C)(C)NC(=O)[C@H]1CC[C@H]2[C@@H]3CC[C@H]4NC(=O)C=C[C@]4(C)[C@H]3CC[C@]12C [Finasteride] | – | 312 ± 9
